The nature of this test: qHTS Assay to Find Inhibitors of Chronic Active B-Cell Receptor Signaling. The following applies: ABC-DLBCL IkBa-CBG/CBR reporter, luminescence ratio (green luciferase fused to IkBa over red control in TMD8 lymphoma cells), 4 h. In short, it runs like this: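 TMD8 ABC-DLBCL cells carrying doxycycline-inducible green luciferase fused to IkappaBalpha plus unfused red luciferase were exposed to compounds (up to 46 uM) for 4 hrs at 37C. Activity came from the overlap-corrected green/red luminescence ratio.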
In general terms: qHTS replaces the single test concentration by a dilution series.

Where [1] appears, read: measured here: CBR red luminescence, cell number.
The mark [2] stands for this setting: measured here: IkBa-CBG green luminescence.

Some of the results follow. The main result of the screen is listed elsewhere. These columns were measured beside it and carry no call. Compounds called inactive in the main read-out are mostly missing here. Words in brackets tell the shape of the fitted curve; partial curves, single points and poor fits give uncertain potencies.

For the compound `COc1ccc2c(CC(=O)Nc3nccs3)coc2c1`, the AC50 (as a rule, the midpoint of the concentration-response curve, whichever way the signal moves) was 5.01 µM [falling, partial curve, poor fit] under setting [1] and 12.6 µM [rising, partial curve, poor fit] under setting [2].
Consider `O=C1NN(c2ccccc2)C(=O)/C1=C/c1coc2ccccc2c1=O`, for which the AC50 under setting [1] is 13 µM [falling, partial curve].
In the case of `Cc1ccc(-n2cc(CNCC3CC(=O)N(C4CC4)C3)c(-c3cccc(C)c3)n2)cc1` (stereo unspecified), the AC50 under setting [1] is 35.5 µM [falling, single point].
For `Cc1ccc(C(=O)CNc2ccc(F)cc2)cc1`, under setting [1], the half-maximal activity concentration (AC50) is 20.6 µM [falling, single point].
On the same count and under the same terms, under `O=C(CN1CCCC1)OCCCc1ccccc1` stands 25.9 µM [rising, single point]; under `CCC(=O)Nc1ncc2c(n1)CC(c1ccco1)CC2=O` (stereo unspecified), 29.1 µM [falling, single point].
Take `CCCCNC(=O)c1onc(CSc2cccc(F)c2)c1C(=O)O`: the AC50 reads like this: under setting [1], 35.5 µM [falling, single point]; under setting [2], 35.5 µM [rising, partial curve, poor fit].
In the case of `CN(C)CCCNC(=O)C[C@H]1C[C@H](C(=O)N2CCCCC2)[C@@]2(C)c3[nH]c4ccc(Cl)cc4c3CCN2C1=O`, the half-maximal activity concentration (AC50) under setting [1] is 29.1 µM [falling, single point].
Same read-out and setting: the same measure for `O=C(C1CCN(S(=O)(=O)c2ccc(Cl)cc2)CC1)N1CCOCC1`: 32.6 µM [rising, single point]; for `Cc1csc(NC(=O)CCc2c(C)nc3cc(-c4cccc(F)c4)nn3c2C)n1`: 16.4 µM [falling, partial curve, poor fit]; for `C/C(=N\Nc1nc2ccccc2[nH]1)c1ccc(N2CCOCC2)cc1`: 10 µM [falling, partial curve].
For `Cc1cc(C)c(C)c(S(=O)(=O)N2C(=S)NC(=O)C2C(C)C)c1C` (stereo unspecified), the AC50 under setting [1] is 20 µM [rising, partial curve, poor fit].
Still for that read-out and setting: under `COC(=O)c1ccccc1NC(=S)N(Cc1ccc2c(c1)OCO2)Cc1cc2cccc(C)c2[nH]c1=O` stands 29.1 µM [rising, single point].
On the same count and under the same terms, under `O=C(Cn1cccc1C(=O)c1ccccc1)NCc1ccccc1` stands 5.8 µM [rising, partial curve, poor fit].
For the compound `COC(=O)c1nccc2c1[nH]c1ccccc12`, the AC50 under setting [1] was 29.1 µM [falling, single point].
As for `Cc1ccc2nc(N=C(N)N)nc(C)c2c1`, the AC50 reads like this: under setting [1], 3.98 µM [falling, partial curve]; under setting [2], 1.26 µM [rising, full curve, poor fit].
For `O=C(/C=C/c1ccco1)NC(=S)Nc1cc(-c2nc3ccccc3s2)ccc1Cl`, the AC50 under setting [1] was 0.651 µM [rising, full curve, poor fit].
As for `CN(CC(=O)Nc1cccc(F)c1)C(=O)c1cc(-c2cccs2)nn1-c1ccccc1`, the half-maximal activity concentration (AC50) under setting [1] was 29.1 µM [falling, single point].
Still for that read-out and setting: the same measure for `CCCC(=O)Nc1ccc(NC(=O)c2ccccn2)cn1`: 10 µM [falling, partial curve, poor fit]; for `O=C(COC(=O)C1=COCCO1)Nc1ccccc1`: 22.4 µM [falling, single point]; for `COc1ccc2cc(CCNC(=O)CC(C)(C)C)c(=O)[nH]c2c1`: 8.2 µM [rising, partial curve, poor fit].
For the compound `COCCn1c(-c2ccco2)nc2nc3ccccc3nc21`, the AC50 under setting [1] is 7.31 µM [falling, partial curve, poor fit].
Still for that read-out and setting: under `Cc1nn(Cc2c(F)c(F)c(F)c(F)c2F)c(C)c1NC(=O)c1ccc(COc2ccc(Cl)cc2Cl)o1` stands 29.1 µM [falling, single point]; under `CCOC(=O)C1=CC[C@H]2c3c(c4ccc(OC)cc4n3C)C(=O)C1N2S(=O)(=O)c1ccc(C)cc1`, 16.4 µM [falling, partial curve]; under `C/C(=N/NC(=O)c1ccoc1C)c1ccc(N2CCOCC2)cc1`, 4.61 µM [falling, partial curve, poor fit].
On the same count and under the same terms, the same measure for `CN(C)C(=O)c1coc2nc3ccccc3nc12`: 11.2 µM [falling, partial curve, poor fit]; for `Cc1nc(-c2ccc([N+](=O)[O-])cc2)sc1C(=O)O`: 5.01 µM [falling, partial curve]; for `COC(=O)Cn1c(C)nc2ccccc21`: 0.00517 µM [falling, full curve, poor fit].
For the compound `Cc1ccc(Cl)cc1NS(=O)(=O)c1ccc2oc(=O)ccc2c1`, the half-maximal activity concentration (AC50) under setting [1] was 35.5 µM [falling, single point].
With `COc1ccccc1N1CCN(Cc2ccc(O)c3ncccc23)CC1`, the AC50 under setting [1] is 29.1 µM [falling, single point] and the half-maximal activity concentration (AC50) under setting [2] was 0.651 µM [falling, full curve, poor fit].
Regarding `O=C(NCCN1C(=O)S/C(=C\c2ccccc2F)C1=O)C1=COCCO1`, under setting [1], the AC50 is 16.4 µM [falling, single point].
For the compound `Cc1ccc(O)c(-c2cc(-c3ccc(F)cc3)no2)c1`, the AC50 under setting [1] was 11.2 µM [falling, partial curve].
For `Cc1csc(NC(=O)C2CCN(C(=O)c3ccccc3C)CC2)n1`, the concentration at half-maximal activity (AC50) under setting [1] was 12.6 µM [falling, partial curve, poor fit].
With `CC(C)c1nn2c(=O)cc(CSc3ccccc3NC(=O)c3ccccc3F)nc2s1`, the AC50 under setting [1] was 14.1 µM [falling, partial curve, poor fit].
For `CC1(C)CC(=O)C(CS(=O)(=O)c2ccccc2)=C(Cl)C1`, the AC50 under setting [1] is 5.62 µM [falling, partial curve, poor fit].
With `CCOC(=O)c1ccccc1NC(=O)Cn1c(=O)n(-c2ccc(CC)cc2)c(=O)c2c(C)c(C(=O)N(C)C)sc21`, the AC50 under setting [1] was 11.2 µM [falling, partial curve, poor fit].
Take `c1ccc(CCNc2nc3ccccc3s2)cc1`: under setting [1], the AC50 was 13 µM [falling, single point].
Take `Cc1ccccc1-n1nc(C)c2c(C(=O)NN)cc(-c3ccncc3)nc21`: under setting [1], the AC50 is 12.6 µM [falling, single point].
The same measure, in the same setting: under `Cc1ccc(NC(=O)CCNC(=O)c2ccc([N+](=O)[O-])cc2)cc1C` stands 0.0631 µM [rising, full curve, poor fit]; under `O=C1OCCC1Sc1nnc(-c2ccc(Br)cc2)o1` (stereo unspecified), 4.11 µM [falling, partial curve].
As to `Cc1ccc(CCN2CC(C(=O)NCCC(C)C)CC2=O)cc1` (stereo unspecified), the AC50 under setting [1] is 35.5 µM [rising, single point].
Consider `O=c1c(-c2ccc(O)cc2O)coc2cc(O)cc(O)c12`, for which the AC50 under setting [1] was 7.08 µM [rising, full curve, poor fit].
Same read-out and setting: under `CCOC(=O)c1ccsc1NC(=O)CCS(=O)(=O)c1ccccc1` stands 11.2 µM [falling, partial curve, poor fit]; under `CCOc1ccc2nc(SCC(=O)Nc3cccc(S(=O)(=O)NC4=NCCCCC4)c3)[nH]c2c1`, 7.08 µM [falling, partial curve].
In the case of `NS(=O)(=O)c1ccc(NC(=S)NNC(=O)c2ccc(Br)o2)cc1`, the AC50 under setting [1] was 22.4 µM [falling, single point].
Consider `Nc1ccc([N+](=O)[O-])cc1C(=O)NNC(=O)c1ccco1`, for which the AC50 under setting [1] is 15.8 µM [falling, single point].
Still for that read-out and setting: the same measure for `O=C(OC1CCOC1=O)c1ccc(-c2nc3ccccc3s2)s1` (stereo unspecified): 5.62 µM [falling, partial curve, poor fit]; for `COC(=O)Cc1c(C)nc2nc(-c3ccccc3)[nH]n2c1=O`: 5.8 µM [falling, partial curve]; for `CCc1ccc(C(=O)COC(=O)c2cccs2)cc1`: 0.731 µM [rising, full curve, poor fit].
Same read-out and setting: the same measure for `CCC(=O)NC1(C(F)(F)F)C(=O)NC(C)=C1C#N` (stereo unspecified): 18.4 µM [falling, partial curve, poor fit]; for `Cc1ccc2cccc(NC(=S)NC(=O)c3ccnn3C)c2n1`: 0.146 µM [rising, full curve, poor fit].
For the compound `CCOC(=O)CSc1ccc(-c2nc3ccccc3[nH]2)cn1`, the AC50 under setting [1] is 11.6 µM [falling, partial curve, poor fit].
For `CN(C)c1ccc(NC(=O)COC(=O)CNC(=O)c2cccs2)cc1`, the AC50 under setting [1] is 0.092 µM [rising, full curve, poor fit].
Consider `Cc1ccc(S(=O)(=O)Oc2ccc(/C=N/NC(=O)c3c(Cl)cnn3C)cc2)cc1`, for which, under setting [1], the AC50 is 18.4 µM [falling, partial curve].
On the same count and under the same terms, the same measure for `CN1CCN(C(=O)CCN2C(=O)/C(=C\c3ccc(Cl)cc3Cl)SC2=S)CC1`: 1.26 µM [falling, full curve, poor fit]; for `Cc1cc2nc(-c3cccc(NC(=O)C(C)C)c3C)oc2cc1C`: 1.12 µM [falling, full curve].
Same read-out and setting: under `COc1cc(/C(C)=N/NC(=O)c2cccc(S(=O)(=O)N3CCCC3)c2)cc(OC)c1OC` stands 14.1 µM [falling, partial curve, poor fit]; under `COc1cc(OC)c(OC)cc1/C=C/c1nc2cc3ccccc3cc2c(=O)n1-c1ccc(F)c(Cl)c1`, 8.91 µM [falling, partial curve].
In the case of `CC(C)(C)c1ccc(COn2c(=O)c(-c3ccco3)[n+]([O-])c3ccccc32)cc1`, under setting [1], the AC50 was 20.6 µM [falling, single point].
Regarding `Fc1ccc(NCc2nnc(SCc3nnc(-c4ccccc4)o3)n2Cc2ccccc2)cc1`, under setting [1], the AC50 is 35.5 µM [falling, single point].
Same read-out and setting: under `COc1cccc(C(=O)NC(=O)Nc2cc(C)[nH]n2)c1` stands 2.82 µM [falling, partial curve]; under `O=C(O)C1Cc2ccccc2CN1C(=O)COc1ccc(Cl)cc1Cl` (stereo unspecified), 12.6 µM [rising, single point].
